This is an account of results in PMC5458078, “Global mapping of CARM1 substrates defines enzyme specificity and substrate recognition” (Nature Communications, 2017).

Sequences of proteins named here, by UniProt entry; tags and fusion partners are left off.
UniProt Q9Y6Q9: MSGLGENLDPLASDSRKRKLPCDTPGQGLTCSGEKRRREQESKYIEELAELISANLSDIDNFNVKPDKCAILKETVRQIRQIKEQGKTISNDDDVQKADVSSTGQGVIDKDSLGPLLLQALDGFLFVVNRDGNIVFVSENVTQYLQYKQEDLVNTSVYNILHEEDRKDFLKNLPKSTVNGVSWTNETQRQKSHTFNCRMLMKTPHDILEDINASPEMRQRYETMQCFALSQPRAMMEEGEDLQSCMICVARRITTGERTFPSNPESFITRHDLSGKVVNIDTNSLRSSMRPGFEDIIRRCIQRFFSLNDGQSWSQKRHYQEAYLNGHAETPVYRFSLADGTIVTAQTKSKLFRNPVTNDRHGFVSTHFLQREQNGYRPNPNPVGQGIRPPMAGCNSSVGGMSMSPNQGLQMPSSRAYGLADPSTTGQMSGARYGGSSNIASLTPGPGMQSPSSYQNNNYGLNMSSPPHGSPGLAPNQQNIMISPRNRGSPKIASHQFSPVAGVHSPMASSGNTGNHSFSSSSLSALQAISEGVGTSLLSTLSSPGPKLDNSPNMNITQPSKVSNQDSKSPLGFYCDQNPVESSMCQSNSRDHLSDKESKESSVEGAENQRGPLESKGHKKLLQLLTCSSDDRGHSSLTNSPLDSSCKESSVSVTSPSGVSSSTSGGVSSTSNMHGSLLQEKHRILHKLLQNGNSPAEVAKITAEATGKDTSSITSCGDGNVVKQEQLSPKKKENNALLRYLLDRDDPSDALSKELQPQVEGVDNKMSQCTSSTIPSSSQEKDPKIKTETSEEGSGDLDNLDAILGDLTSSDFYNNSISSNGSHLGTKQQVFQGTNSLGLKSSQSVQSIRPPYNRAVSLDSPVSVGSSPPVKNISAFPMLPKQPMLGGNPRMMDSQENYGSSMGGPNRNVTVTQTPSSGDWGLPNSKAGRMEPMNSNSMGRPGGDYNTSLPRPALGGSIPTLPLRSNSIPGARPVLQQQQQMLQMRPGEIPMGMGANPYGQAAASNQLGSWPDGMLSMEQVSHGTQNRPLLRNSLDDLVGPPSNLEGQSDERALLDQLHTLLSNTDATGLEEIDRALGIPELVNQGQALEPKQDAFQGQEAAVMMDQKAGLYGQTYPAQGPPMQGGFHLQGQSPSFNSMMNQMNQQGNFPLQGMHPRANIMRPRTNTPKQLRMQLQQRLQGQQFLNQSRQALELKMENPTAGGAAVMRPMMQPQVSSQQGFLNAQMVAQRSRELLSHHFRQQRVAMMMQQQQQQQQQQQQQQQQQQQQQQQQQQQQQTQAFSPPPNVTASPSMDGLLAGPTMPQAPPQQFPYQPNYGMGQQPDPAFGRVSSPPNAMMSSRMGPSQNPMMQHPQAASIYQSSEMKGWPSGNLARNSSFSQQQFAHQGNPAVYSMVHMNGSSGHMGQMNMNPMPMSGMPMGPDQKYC
UniProt Q92922: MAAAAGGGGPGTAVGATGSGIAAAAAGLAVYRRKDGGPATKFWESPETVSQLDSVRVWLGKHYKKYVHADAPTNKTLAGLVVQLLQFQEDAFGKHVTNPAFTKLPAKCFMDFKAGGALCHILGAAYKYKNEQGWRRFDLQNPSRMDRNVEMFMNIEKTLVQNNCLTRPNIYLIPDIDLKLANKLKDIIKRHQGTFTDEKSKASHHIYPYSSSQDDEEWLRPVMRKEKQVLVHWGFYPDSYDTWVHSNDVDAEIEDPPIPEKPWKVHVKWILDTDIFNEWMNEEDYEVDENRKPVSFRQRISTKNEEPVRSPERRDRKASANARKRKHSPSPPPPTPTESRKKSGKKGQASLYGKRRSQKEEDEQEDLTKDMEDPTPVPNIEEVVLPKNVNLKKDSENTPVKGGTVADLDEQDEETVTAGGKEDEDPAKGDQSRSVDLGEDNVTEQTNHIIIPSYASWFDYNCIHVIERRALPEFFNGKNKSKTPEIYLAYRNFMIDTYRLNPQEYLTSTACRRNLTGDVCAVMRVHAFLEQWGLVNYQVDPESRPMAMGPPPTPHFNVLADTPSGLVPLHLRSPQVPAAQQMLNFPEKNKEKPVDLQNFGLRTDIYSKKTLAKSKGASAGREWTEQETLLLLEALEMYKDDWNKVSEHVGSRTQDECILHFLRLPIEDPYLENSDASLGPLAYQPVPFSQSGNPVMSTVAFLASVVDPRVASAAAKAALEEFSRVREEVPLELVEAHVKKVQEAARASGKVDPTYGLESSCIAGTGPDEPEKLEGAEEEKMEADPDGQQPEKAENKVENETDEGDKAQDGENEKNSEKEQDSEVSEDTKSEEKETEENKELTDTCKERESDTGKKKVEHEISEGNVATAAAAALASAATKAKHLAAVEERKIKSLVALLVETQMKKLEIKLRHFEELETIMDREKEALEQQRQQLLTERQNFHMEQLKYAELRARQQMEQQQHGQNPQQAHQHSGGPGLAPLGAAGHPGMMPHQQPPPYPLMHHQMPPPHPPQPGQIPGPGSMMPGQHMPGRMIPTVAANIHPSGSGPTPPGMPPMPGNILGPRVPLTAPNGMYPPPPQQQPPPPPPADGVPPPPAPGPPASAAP
UniProt P11940: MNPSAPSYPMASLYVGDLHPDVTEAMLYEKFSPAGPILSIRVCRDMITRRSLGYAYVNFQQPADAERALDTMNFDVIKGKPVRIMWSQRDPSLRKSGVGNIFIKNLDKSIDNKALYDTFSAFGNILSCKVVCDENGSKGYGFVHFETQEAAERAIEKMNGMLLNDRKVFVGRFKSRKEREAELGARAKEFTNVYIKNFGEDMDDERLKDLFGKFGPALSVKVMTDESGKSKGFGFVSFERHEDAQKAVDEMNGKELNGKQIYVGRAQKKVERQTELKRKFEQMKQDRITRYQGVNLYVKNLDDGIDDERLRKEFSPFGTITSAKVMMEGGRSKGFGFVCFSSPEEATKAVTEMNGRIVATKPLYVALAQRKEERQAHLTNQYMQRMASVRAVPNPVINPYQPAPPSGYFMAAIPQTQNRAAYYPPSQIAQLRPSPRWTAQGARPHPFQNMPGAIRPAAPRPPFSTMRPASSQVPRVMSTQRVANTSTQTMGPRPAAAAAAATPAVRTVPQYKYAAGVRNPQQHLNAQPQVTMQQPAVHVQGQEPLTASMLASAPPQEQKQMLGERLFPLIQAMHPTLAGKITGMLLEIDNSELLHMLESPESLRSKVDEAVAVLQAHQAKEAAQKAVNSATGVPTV

Experiment [1] addresses T1, FLAG-tagged CARM1 full-length (coactivator-associated arginine methyltransferase 1) (human) (UniProt Q86X55).
T1 sequence: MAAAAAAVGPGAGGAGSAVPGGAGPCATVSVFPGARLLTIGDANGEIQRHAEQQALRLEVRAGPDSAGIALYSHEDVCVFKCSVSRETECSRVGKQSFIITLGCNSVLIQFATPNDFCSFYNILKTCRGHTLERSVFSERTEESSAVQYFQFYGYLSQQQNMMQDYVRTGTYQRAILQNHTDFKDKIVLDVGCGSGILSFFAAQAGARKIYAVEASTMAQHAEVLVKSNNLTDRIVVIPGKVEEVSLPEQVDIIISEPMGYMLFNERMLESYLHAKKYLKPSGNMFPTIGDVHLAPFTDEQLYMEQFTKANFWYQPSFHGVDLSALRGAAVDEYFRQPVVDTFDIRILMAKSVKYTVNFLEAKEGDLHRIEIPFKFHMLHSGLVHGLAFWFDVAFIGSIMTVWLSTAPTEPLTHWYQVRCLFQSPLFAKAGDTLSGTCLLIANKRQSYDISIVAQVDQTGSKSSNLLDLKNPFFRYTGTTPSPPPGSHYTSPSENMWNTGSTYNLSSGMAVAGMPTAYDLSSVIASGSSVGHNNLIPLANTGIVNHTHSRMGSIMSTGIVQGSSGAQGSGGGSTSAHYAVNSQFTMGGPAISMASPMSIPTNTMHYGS
Description: co-IP; FLAG-tagged CARM1 constructs transiently transfected into HEK293T CARM1 KO cells; CARM1 immunoprecipitated with anti-FLAG M2 resin; partners detected by western blot with the respective antibodies or ADMA antibodies. Background: Immunoblotting shows a protein as a band on a membrane.

Experiment [2] has as its target T2, FLAG-tagged CARM1 28–608 (human) (UniProt Q86X55).
T2 sequence: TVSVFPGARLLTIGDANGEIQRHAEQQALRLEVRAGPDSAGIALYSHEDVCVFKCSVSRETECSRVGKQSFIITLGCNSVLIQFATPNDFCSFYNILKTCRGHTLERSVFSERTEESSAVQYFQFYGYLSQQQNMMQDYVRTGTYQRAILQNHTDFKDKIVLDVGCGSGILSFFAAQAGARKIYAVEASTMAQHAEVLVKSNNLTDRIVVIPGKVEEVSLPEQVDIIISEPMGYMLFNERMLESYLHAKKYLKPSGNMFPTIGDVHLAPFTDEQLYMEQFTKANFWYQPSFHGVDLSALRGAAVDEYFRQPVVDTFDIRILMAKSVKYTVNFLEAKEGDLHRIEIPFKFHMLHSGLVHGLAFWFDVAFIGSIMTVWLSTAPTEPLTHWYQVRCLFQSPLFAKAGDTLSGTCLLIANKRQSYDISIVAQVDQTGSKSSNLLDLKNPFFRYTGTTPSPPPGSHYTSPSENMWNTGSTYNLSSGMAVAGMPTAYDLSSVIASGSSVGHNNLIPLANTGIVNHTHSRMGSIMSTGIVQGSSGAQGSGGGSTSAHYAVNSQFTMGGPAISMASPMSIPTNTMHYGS
The description is as above.

Results are given in words; binding and its absence hold for the method and conditions named. In cells and extracts the contact can be indirect. Some entries that bind do so weakly or less than the wild type. Where a sequence is shown, tags or fusion partners need not be part of it.

Take NCOA3 (from UniProt Q9Y6Q9 1-1424): the binding result in experiment [1] and in experiment [2] was “binds” each time.

On to BAF155 (from UniProt Q92922 1-1105), for which the binding entry in experiment [1] and in experiment [2] was “binds” throughout.

As to PABP1 (from UniProt P11940 1-636), the binding result in experiment [1] and in experiment [2] was “binds” throughout.
